The test concerns A549. As to the kind of experiment: Antitumor activity against human A549 cells assessed as inhibition of cell growth incubated for 48 hrs by MTS assay. It is filed as functional, cell-based. As to conditions: A549, 48 h.

Each structure is given as a SMILES string. pIC50: −log10 of the molar value.

In general, pIC50 refers to the IC50 on a negative log10 scale, so that one unit is a factor of ten.

With `CC(=O)O[C@H]1C(=O)[C@@]2(C)[C@H]([C@H](OC(=O)c3ccccc3)[C@]3(O)C[C@H](OC(=O)[C@H](O)[C@@H](NC(=O)c4ccccc4)c4ccccc4)C(C)=C1C3(C)C)[C@]1(OC(C)=O)CO[C@@H]1C[C@@H]2O` [PACLITAXEL], the pIC50 is more than 8.10.

(Values after ChEMBL document CHEMBL5154857, “Discovery of potential novel CRBN modulators by virtual screening and bioassay” (Eur J Med Chem, 2022).)
